The values that follow come from patent US20080299666A1 (University of South Carolina, priority 2007, published 2008).

Where no end group is shown, it is not given here.

The data set can be described thus: general procedure: Fmoc solid-phase peptide synthesis; Fmoc-Ala-Wang resin; HBTU/HOBT. The settings on record: whole synthesis, scale 0.2 mmol.

With Ac-AAKAAKA, the isolated mass was determined as 0.1178 g and the isolated yield was found to be 84%.
Ac-AKAAAKA showed an isolated mass of 0.1103 g and an isolated yield of 82%.
The like results for Ac-AAAKAKA were, in that order, 0.0994 g and 74%.
